# Results taken from the supplement of paper PMC10338343.
# ± gives the standard deviation. The entries are a selection whose mix differs from that of the whole data set. Many of these values have a large error.
# Tested on: MIWI (PIWIL1) piRISC loaded with L1MC piRNA (30 nt)
# Test: pre-steady-state target cleavage rate (min^-1); MIWI and MILI are mouse PIWI proteins and EfPiwi is from a freshwater sponge; tags in brackets are library labels; higher = faster piRNA-guided slicing of the target
# Details: guide: L1MC piRNA 5'p-UAACUAAAUACUAUGCAAGCUGUAGGUCCU; auxiliary factor: 500 nM mouse GTSF1
# Procedure, shortened: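 Active affinity-purified piRISC carrying one synthetic guide (1 nM) was mixed with a transcribed, DNA-blocked target RNA library […] in HEPES–potassium acetate buffer at 33 °C for 0–8 or 0–960 min, with or without 500 nM GTSF1 partner protein. Uncleaved targets were then sequenced and normalised to depth and to weakly complementary targets. Three trials were pooled, and k3 was capped at 0.0001 min^-1. A burst-and-steady-state fit was applied to obtain the pre-steady-state cleavage rate.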
# 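Further: 1 nM active piRISC with 0.1 nM target library at 33 °C single turnover.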
row,Sequence,pre-steady-state target cleavage rate
1,UCGACCUAGCAGCUUGCAUAGUAUUUAGUUA,1.34 ± 0.058
2,UCCUGGAUGUCGAACGUUAGUAUUUUAGUUA,0.000433 ± 0.014
3,UCGUGCUACAGCUUGCAUAGUAUUUAGUUA,1.38 ± 0.059

# Same assay, conditions: guide: L1MC piRNA 5'p-UAACUAAAUACUAUGCAAGCUGUAGGUCCU; auxiliary factor: none (no GTSF1)
row,Sequence,pre-steady-state target cleavage rate
1,UCGACCUACAGCAUGCAUAGUAUUUACAAA,0.00232 ± 0.003
2,UCCUGGUACAGCUUGCAUAGUAUUAACAAA,0.00203 ± 0.003
3,AGGACCUACAGCUUCCAUAGUAUUUUCAAA,0.000825 ± 0.011
4,AGGACCUACAGCUUGCUUAGUAUUUUCAAA,0.00234 ± 0.0035
5,UCGACCUACAGGUUCCAUAGUAUUUAGUUA,0.00117 ± 0.0037
6,AGGACCUACAGCUUGCAUAGUAUAAUCAAA,0.00143 ± 0.0063
7,UCGACCUACAGCUACGAUAGUAUUUAGUAA,0.000293 ± 0.01
8,UCCACCUACAGCUUGCUAUAGUAUUUAGUUA,0.000285 ± 0.0085
9,UCGACCUACAGCUUCGUUAGUAUUUAGUAA,0.00065 ± 0.0082
10,AGGUGGUACAGCUUGCAUAGUAUUUACAAA,0.00239 ± 0.0025
11,UGGACCUACAGCUUGCAUAGUUAAUAGUAA,0.00266 ± 0.003
12,UCGACCUACAGCUUGCAUAGAUUUUAGAAA,0.00108 ± 0.0062
13,UCCACCUACAGGAAGCAUAGUAUUUAGUAA,0.00171 ± 0.0019
14,AGGACCUACAGCUUGCAUAGAUUUAGUUA,0.00157 ± 0.0067
15,UCCACCUACAGGAAGCAUAGUAUUUAGAAA,0.000348 ± 0.0074
16,UCGACCUACAGCUUCCAUAGUAUUUAGAUA,0.00126 ± 0.0058
17,AGGACCUACAGCUUCCAAAGUAUUUAGUUA,0.00137 ± 0.0025
18,UCCUGGAUGUCGAACGAUAGUUAAUAGUUA,0.00017 ± 0.021
19,UCCUGCUACAGCUUGCAGUAGUAUUUAGUUA,0.000208 ± 0.024

row,Sequence,pre-steady-state target cleavage rate
1,UGGACCUACAGCAAGCAUAGUAUUUACAAA,0.000689 ± 0.0069
2,AGGACCUACAGCUUGGUAAGUAUUUUCAAA,0.000275 ± 0.015
3,UGGACCUACAGCUUGCAUAGUUAUUUCAAA,0.00051 ± 0.0096
4,UCCUGGAUGUCGAACGAUAGCUAUUUAGUUA,0.000228 ± 0.019
5,UGGACCUACAGCUUCCAUAGUAUUAAGUUA,0.000482 ± 0.0073
6,UCCUGCUACAGCUUGGUUAGUAUUUAGAAA,0.00117 ± 0.0052
7,UCGACCUACAGCUUGCAUAGUUUUUACAAA,0.00214 ± 0.0039
8,UCGACCUACAGCUUGCAAUCUAUUUACAAA,0.000258 ± 0.013
9,UCCACCUACACGAUGCAUAGUAUUUAGUAA,0.00092 ± 0.005
10,AGGACCUACAGCUUGCUAUGUAUUUAGUAA,0.00262 ± 0.0026
11,UGGACCUACAGCUUGCAUAGUUAAUACAAA,0.000381 ± 0.0067
12,UGGACCUACACGUUGCAUAGUAUUUUCAAA,0.00119 ± 0.0043
13,UCGACCUACACGUUGCAUAGUAUUUACAAA,0.00149 ± 0.004
14,UCCUCCUACAGCUUGCAUAGAUAUUAGAAA,0.000318 ± 0.011
15,UCGACCUACAGGAAGCAUAGUAUUUAGAAA,0.00051 ± 0.0083
16,UCCACCUACAGCUUGCAUAGUAUGUAGUUA,0.00331 ± 0.0036
17,UCCACCUACAGCUUGCAUAGUAUAAUGUAA,0.00197 ± 0.0039
18,UCGACCUACAGCUUGCAUUCAUAAAUCAAA [g13:g28:cont:t1A],0.000438 ± 0.013

# As a working copy, part of the list above:
row,Sequence,pre-steady-state target cleavage rate
7,UCGACCUACAGCUACGAUAGUAUUUAGUAA,0.000293 ± 0.01
8,UCCACCUACAGCUUGCUAUAGUAUUUAGUUA,0.000285 ± 0.0085
9,UCGACCUACAGCUUCGUUAGUAUUUAGUAA,0.00065 ± 0.0082
